Results are given in words; binding and its absence hold for the method and conditions named. Some results given as binding are weak or reduced against the parent protein; the word gives no strength. Sequences can lack the tags named with a protein.
T1: FLAG-Sec24D (human) (UniProt O94855)
T1 sequence: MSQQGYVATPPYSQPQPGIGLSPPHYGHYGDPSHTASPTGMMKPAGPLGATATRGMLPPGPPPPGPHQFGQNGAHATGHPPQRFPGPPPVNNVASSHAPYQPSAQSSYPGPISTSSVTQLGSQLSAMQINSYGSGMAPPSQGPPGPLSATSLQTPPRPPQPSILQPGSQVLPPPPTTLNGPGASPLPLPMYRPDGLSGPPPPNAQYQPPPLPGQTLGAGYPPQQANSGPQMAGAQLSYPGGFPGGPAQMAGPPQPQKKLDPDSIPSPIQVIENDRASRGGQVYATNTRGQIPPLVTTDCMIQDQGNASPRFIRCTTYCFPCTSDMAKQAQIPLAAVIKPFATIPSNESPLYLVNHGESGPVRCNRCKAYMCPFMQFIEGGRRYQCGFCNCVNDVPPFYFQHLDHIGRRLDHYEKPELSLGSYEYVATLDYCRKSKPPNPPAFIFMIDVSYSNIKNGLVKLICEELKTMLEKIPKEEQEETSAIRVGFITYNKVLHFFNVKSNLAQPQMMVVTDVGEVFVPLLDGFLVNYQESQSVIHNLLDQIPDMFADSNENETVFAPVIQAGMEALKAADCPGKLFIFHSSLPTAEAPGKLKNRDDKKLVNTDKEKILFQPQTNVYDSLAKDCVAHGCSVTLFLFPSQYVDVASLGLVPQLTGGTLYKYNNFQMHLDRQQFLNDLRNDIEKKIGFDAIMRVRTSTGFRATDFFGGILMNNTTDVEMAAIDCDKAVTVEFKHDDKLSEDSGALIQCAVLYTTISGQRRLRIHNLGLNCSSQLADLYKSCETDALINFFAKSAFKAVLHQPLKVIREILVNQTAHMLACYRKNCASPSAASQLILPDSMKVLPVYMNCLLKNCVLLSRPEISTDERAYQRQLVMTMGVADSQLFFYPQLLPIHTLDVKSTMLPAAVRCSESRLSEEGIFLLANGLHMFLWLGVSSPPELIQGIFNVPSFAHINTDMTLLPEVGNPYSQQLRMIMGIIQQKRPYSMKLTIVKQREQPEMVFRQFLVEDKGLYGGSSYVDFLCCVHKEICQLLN

Amino acid sequences for entries named in this document (tags omitted).
UniProt Q15436: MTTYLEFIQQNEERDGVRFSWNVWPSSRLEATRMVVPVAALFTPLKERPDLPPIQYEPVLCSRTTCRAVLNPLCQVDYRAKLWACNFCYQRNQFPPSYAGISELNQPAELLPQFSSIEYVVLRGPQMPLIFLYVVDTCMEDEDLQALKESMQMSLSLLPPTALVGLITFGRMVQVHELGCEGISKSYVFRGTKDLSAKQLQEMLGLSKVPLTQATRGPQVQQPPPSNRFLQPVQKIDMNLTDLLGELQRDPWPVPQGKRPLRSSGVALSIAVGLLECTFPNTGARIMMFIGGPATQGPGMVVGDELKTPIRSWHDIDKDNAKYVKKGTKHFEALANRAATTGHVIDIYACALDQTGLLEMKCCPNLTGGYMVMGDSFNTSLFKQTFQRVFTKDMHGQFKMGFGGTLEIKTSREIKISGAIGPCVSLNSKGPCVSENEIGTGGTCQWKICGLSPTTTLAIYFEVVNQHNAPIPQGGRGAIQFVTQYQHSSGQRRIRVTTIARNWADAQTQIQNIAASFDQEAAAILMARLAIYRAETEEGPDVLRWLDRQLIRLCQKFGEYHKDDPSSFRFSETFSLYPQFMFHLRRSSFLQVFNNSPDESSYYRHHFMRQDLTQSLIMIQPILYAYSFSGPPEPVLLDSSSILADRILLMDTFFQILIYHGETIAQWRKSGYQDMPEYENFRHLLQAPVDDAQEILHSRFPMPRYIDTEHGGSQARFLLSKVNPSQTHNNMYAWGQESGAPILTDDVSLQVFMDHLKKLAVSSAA


How the values were obtained:
FLAG-Sec24D (human) [1] = target: T1, FLAG-Sec24D (human); experiment: co-purification on FLAG affinity beads
FLAG-Sec24D (human) [2] = target: T1, FLAG-Sec24D (human); experiment: pull-down

| Molecule | binding (FLAG-Sec24D (human) [1]) | binding (FLAG-Sec24D (human) [2]) |
| --- | --- | --- |
| HA-Sec23A (from UniProt Q15436 1-765) | binds | – |
| GST-tagged TANGO1-PRD (1651–1907 aa)-His6 (domain or fragment) NTQNPPRRGPLSQNGSFGPSPVSGGECSPPLTVEPPVRPLSATLNRRDMPRSEFGSVDGPLPHPRWSAEASGKPSPSDPGSGTATMMNSSSRGSSPTRVLDEGKVNMAPKGPPPFPGVPLMSTPMGGPVPPPIRYGPPPQLCGPFGPRPLPPPFGPGMRPPLGLREFAPGVPPGRRDLPLHPRGFLPGHAPFRPLGSLGPREYFIPGTRLPPPTHGPQEYPPPPAVRDLLPSGSRDEPPPASQSTSQDCSQALKQSP | – | no binding |

From doi:10.1101/452904 (bioRxiv, 2018)
